# From US20250101108A1, “METHODS TO ENHANCE THERAPEUTIC EFFICACY IN MELANOMA VIA MODULATION OF CELL SURFACE PD-L1/L2” (THE REGENTS OF THE UNIVERSITY OF CALIFORNIA, priority 2021, published 2025)
# Chains of the proteins cited; added tags and fusions are not shown. Residues count along the entry.
# UniProt Q9BQ51, residues 20-273: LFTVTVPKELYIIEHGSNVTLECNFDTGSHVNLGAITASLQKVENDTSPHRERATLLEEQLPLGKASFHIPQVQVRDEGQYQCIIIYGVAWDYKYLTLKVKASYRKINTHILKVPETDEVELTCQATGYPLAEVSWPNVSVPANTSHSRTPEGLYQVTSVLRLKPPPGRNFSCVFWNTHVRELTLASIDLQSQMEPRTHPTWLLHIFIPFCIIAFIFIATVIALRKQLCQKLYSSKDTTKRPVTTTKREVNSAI
# UniProt Q9NZQ7, residues 19-290: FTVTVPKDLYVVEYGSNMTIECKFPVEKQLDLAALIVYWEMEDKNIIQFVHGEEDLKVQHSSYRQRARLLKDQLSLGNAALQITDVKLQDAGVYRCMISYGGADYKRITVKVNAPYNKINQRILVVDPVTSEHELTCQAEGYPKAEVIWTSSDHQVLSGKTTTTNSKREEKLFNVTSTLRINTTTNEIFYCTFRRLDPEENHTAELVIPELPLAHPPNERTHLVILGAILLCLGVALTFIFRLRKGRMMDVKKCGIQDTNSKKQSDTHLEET
# UniProt Q96J02, residues 2-903: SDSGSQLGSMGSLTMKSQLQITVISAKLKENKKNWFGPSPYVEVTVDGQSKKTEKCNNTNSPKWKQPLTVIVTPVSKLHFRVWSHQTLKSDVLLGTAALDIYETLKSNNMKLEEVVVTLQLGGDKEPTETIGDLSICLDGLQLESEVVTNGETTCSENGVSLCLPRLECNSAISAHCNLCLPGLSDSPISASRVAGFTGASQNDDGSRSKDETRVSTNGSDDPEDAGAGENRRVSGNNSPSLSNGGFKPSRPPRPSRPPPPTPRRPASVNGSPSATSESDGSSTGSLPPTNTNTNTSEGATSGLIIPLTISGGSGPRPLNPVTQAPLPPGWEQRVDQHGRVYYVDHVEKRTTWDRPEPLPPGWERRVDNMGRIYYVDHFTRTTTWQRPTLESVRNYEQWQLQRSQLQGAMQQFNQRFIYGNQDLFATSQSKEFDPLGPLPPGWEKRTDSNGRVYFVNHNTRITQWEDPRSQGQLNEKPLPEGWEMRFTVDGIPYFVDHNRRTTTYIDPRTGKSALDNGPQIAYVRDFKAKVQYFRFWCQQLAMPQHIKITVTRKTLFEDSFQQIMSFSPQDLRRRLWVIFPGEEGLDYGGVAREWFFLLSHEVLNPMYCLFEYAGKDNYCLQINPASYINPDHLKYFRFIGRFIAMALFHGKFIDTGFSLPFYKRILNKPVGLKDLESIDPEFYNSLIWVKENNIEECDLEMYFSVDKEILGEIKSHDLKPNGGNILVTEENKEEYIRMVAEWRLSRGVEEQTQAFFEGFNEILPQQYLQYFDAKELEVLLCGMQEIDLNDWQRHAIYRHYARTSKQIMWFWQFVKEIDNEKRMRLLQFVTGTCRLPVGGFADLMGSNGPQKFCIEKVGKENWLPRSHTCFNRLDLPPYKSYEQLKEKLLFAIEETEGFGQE
# These are yes or no findings as the source states them, for the method shown. In cells and extracts the contact can be indirect. Some binding calls cover weakened binding; strength is not graded here.
# What was measured:
# PD-L2-FLAG (human) [1] = target: PD-L2-FLAG (human) (UniProt Q9BQ51); assay: co-immunoprecipitation with anti-HA beads, Western blot, HEK 293T cells
# PD-L1 (human) [2] = target: PD-L1 (human) (UniProt Q9NZQ7); assay: co-immunoprecipitation with anti-FLAG M2 beads, Western blot, HEK 293T cells
# PD-L1 (human) [3] = target: PD-L1 (human) (UniProt Q9NZQ7); assay: co-immunoprecipitation with anti-PD-L1 antibody, Western blot, M238 R1 and H358 cells
# PD-L2-FLAG (human) [4] = target: PD-L2-FLAG (human) (UniProt Q9BQ51); assay: summary sentence of Example 1 (IP-MS, co-immunoprecipitation)
# PD-L2-FLAG (human) [5] = target: PD-L2-FLAG (human) (UniProt Q9BQ51); assay: IP-MS and co-immunoprecipitation (FIGS. 1A, 1D)
substance,measurement,setting,value
ITCH-HA (from UniProt Q96J02 2-903) (enzyme),binding,PD-L2-FLAG (human) [1],binds
ITCH-FLAG (from UniProt Q96J02 2-903) (enzyme),binding,PD-L1 (human) [2],binds
E3 ligase ITCH (from UniProt Q96J02 2-903) (enzyme),binding,PD-L1 (human) [3],binds
same,binding,PD-L2-FLAG (human) [4],binds
same,binding,PD-L2-FLAG (human) [5],binds
